Laboratory results as given in the supplement of paper PMC10849652.
This is one part of the list.

By UniProt entry, the sequences of proteins in these tests, tags left out. Where a name states a change or a piece, a line headed by the entry shows the natural chain unless it says otherwise.
UniProt Q9UG56: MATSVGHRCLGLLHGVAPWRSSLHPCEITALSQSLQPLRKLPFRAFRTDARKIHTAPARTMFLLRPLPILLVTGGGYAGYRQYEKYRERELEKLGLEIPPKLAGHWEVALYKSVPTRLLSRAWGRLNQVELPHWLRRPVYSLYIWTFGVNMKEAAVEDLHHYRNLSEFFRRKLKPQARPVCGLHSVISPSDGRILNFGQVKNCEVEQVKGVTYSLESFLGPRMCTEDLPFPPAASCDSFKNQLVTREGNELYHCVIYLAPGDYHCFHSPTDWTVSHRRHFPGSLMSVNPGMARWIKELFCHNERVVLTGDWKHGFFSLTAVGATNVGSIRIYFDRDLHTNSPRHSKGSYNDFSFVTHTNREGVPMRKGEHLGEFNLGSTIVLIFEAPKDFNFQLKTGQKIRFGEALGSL
UniProt P07205: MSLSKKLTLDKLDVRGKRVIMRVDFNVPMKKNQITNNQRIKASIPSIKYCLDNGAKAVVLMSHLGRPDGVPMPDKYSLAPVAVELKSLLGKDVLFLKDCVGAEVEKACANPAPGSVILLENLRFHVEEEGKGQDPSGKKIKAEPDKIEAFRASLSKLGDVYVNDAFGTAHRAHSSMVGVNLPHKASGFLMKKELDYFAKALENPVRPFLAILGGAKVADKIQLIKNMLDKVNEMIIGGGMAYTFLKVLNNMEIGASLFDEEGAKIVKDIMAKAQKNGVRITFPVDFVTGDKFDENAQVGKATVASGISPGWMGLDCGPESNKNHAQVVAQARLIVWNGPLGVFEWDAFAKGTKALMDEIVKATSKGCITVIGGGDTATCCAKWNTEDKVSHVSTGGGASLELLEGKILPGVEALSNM
UniProt Q16512: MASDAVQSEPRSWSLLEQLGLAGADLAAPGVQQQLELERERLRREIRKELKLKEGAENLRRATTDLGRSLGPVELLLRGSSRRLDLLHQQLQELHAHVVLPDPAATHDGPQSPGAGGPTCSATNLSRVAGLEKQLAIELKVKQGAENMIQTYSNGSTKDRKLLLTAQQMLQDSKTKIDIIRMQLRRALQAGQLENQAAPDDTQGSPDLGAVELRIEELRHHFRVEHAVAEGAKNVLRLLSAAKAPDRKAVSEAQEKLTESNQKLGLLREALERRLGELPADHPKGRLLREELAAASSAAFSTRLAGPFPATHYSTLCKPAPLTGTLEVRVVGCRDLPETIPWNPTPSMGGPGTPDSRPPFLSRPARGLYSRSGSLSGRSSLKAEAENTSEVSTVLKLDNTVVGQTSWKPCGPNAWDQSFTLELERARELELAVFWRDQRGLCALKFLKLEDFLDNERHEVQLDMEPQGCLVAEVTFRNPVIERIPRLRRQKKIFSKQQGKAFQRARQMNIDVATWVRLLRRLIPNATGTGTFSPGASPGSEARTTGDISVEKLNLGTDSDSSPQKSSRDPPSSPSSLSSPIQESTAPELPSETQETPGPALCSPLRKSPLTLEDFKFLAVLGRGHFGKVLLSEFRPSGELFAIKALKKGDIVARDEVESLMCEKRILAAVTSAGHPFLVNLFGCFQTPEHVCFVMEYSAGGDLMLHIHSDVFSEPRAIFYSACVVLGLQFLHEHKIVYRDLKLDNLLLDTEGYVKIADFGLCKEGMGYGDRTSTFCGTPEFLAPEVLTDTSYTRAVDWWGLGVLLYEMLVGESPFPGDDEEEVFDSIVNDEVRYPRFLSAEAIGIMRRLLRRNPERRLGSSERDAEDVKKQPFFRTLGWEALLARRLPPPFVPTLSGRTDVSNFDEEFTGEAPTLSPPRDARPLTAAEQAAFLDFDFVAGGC
UniProt P78356: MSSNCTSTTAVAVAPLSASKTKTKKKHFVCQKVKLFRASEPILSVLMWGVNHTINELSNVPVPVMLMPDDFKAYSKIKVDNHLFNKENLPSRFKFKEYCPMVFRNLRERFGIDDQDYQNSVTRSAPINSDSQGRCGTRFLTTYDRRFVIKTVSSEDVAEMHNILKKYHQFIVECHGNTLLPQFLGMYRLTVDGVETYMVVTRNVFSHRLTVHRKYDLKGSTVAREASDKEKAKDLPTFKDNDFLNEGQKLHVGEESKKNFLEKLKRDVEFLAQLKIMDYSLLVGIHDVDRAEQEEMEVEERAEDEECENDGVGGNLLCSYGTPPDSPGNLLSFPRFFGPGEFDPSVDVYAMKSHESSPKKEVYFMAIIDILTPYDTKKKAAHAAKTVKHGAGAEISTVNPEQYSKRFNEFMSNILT
UniProt Q32M88: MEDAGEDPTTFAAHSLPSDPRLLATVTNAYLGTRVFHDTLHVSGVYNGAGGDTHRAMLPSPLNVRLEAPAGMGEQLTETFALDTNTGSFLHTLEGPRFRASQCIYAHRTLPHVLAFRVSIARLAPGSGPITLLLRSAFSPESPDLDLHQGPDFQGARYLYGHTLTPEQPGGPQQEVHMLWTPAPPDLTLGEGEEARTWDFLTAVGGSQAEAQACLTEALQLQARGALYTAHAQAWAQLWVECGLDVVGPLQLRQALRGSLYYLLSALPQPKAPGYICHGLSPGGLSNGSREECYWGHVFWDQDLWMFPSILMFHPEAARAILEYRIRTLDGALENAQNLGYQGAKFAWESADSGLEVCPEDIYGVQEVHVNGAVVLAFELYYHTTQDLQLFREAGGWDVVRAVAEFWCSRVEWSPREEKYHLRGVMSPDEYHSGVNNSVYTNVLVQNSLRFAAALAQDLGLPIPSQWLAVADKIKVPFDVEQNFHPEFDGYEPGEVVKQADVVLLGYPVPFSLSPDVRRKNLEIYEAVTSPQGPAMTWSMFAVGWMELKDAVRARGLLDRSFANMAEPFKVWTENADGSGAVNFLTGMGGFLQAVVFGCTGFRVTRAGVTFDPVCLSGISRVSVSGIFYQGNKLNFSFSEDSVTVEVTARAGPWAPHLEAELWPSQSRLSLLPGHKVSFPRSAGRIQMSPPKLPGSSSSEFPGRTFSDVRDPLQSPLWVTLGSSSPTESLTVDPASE
UniProt Q7RTV0, whole entry, looked up: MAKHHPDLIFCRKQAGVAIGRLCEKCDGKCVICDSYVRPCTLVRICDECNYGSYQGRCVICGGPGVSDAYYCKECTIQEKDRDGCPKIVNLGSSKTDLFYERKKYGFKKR
UniProt Q32NB8: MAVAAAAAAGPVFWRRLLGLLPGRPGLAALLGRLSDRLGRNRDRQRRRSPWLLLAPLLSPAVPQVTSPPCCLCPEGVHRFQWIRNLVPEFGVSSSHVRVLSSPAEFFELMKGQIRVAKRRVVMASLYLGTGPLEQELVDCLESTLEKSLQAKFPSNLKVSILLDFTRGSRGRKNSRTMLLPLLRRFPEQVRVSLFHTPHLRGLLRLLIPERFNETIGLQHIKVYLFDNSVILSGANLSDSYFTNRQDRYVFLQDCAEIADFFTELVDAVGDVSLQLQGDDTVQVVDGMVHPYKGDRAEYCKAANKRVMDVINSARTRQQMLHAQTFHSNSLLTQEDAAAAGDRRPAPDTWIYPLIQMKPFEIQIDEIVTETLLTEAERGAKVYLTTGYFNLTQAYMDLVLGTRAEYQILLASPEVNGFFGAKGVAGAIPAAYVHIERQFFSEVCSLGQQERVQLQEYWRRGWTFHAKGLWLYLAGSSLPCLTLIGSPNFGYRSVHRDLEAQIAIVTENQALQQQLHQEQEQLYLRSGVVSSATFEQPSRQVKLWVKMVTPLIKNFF
UniProt P42338: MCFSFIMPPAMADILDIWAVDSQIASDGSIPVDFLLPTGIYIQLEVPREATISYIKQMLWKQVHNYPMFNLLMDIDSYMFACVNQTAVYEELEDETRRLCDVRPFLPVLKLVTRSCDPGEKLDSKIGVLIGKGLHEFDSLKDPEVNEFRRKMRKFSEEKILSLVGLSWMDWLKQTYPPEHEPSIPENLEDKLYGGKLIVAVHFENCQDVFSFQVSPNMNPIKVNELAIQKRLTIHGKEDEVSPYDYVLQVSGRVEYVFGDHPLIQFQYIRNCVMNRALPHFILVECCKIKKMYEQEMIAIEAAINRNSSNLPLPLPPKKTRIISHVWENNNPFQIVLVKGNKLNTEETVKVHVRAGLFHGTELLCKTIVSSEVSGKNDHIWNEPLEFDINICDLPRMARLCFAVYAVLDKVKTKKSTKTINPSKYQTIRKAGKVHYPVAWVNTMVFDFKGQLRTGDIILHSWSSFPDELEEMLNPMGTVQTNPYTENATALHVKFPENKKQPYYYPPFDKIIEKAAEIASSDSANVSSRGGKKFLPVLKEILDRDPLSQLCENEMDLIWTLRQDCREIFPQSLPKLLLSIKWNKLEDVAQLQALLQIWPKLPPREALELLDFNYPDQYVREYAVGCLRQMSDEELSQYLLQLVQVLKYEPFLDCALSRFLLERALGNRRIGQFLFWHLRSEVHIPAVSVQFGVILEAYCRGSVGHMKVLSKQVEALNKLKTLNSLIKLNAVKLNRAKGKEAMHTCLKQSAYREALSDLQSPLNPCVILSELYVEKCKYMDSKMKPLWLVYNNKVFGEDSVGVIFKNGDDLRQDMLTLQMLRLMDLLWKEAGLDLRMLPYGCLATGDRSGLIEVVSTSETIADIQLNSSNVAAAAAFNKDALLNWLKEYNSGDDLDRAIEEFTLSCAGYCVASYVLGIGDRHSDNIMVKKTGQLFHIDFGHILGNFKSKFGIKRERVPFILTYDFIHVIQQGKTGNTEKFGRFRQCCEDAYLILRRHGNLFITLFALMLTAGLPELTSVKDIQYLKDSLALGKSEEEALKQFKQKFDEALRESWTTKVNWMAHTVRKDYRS
UniProt Q86T03: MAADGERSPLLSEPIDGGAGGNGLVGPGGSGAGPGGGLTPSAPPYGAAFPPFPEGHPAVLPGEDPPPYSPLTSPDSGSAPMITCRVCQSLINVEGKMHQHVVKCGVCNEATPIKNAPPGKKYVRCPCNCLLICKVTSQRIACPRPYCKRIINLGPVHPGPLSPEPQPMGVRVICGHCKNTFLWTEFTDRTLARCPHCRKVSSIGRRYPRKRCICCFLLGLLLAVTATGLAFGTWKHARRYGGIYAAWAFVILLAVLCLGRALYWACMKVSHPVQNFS
UniProt Q92521: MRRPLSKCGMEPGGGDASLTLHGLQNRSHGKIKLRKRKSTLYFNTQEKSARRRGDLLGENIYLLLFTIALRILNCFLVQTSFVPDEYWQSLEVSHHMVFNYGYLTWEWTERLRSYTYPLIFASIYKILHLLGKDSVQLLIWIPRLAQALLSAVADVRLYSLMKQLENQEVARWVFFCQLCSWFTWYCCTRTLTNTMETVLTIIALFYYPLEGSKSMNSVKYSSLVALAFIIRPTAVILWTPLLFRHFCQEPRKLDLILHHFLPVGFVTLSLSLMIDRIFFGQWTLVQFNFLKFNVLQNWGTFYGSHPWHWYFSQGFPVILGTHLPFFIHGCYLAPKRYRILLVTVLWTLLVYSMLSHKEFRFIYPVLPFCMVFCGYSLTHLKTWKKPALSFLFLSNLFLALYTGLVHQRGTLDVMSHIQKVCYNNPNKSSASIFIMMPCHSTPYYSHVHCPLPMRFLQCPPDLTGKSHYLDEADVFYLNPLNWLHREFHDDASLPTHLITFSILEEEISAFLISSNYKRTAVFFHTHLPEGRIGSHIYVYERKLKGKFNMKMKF
UniProt P27986, whole entry, looked up: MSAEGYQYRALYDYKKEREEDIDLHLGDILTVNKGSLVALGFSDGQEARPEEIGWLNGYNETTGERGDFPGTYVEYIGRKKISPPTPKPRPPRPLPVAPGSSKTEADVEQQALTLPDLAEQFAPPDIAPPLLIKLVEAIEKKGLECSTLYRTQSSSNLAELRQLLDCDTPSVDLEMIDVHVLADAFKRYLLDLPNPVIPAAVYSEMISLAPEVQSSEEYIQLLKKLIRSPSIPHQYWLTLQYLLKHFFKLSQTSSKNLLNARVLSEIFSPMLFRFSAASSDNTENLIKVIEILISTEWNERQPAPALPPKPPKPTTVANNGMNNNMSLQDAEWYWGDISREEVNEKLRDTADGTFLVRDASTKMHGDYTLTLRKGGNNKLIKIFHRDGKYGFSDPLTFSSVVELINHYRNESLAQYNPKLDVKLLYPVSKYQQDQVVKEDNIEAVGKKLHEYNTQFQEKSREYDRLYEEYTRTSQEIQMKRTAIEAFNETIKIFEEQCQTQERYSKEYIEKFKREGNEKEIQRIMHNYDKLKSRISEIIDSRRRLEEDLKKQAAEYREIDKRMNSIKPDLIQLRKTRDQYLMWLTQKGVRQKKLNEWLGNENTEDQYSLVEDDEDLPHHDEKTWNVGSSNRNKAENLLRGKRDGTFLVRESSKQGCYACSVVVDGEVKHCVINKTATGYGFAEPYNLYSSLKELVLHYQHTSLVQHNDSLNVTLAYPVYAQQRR
UniProt Q8N4L2: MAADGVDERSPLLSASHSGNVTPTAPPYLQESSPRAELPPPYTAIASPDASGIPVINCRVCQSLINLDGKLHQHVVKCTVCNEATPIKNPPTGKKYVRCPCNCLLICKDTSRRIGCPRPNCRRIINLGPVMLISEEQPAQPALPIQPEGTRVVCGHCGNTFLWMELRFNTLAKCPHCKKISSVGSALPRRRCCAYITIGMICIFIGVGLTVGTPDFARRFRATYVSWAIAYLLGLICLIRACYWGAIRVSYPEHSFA

Assays:
Assay in all cases: log2 fold change, soluble protein after heating vs DMSO (PISA); higher = thermal stabilisation; K562 cells, 10 uM, 30 min; active = over 0.2 and 3.5 SD of the protein, either way, in both replicates (recomputed)
[1] = compound: CS(=O)(=O)c1ccc(-c2cnc(N)c(C(=O)Nc3ccccc3)n2)cc1
Summary of the method: (§1)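 K562 cells at 2×10^6 cells/mL were exposed to 10 μM compound for 30 min, then aliquots were heated for 3 min across 48°C-58°C, pooled, and extracted in PBS containing 0.5% NP-40 at 4°C. The supernatant after 21,000xg for 90 min was taken as soluble protein and measured by TMTpro 16plex LC-MS/MS with channel sums equalised. Thermal stability is reported relative to control samples, with values from duplicates. Fold changes are given on a log2 scale.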

crizotinib = compound: C[C@@H](Oc1cc(-c2cnn(C3CCNCC3)c2)cnc1N)c1c(Cl)ccc(F)c1Cl [crizotinib]
Summary of the method: as §1

[2] = compound: C[C@@H]1COCCN1C2=NC(=NC(=C2)C3(CC3)S(=O)(=O)C)C4=C5C=CNC5=CC=C4
Summary of the method: as §1

[3] = compound: C[C@H](C1=CC=C(C=C1)C(=O)NC2=C3C=CNC3=NC=C2)N
Summary of the method: as §1

gandotinib = compound: Cc1cc(Nc2cc(CN3CCOCC3)c3nc(C)c(Cc4ccc(Cl)cc4F)n3n2)n[nH]1 [gandotinib]
Summary of the method: as §1

[4] = compound: Cc1cc(SCc2sc(-c3ccc(C(F)(F)F)cc3)nc2C)ccc1OCC(=O)O
Summary of the method: as §1

doramapimod = compound: Cc1ccc(-n2nc(C(C)(C)C)cc2NC(=O)Nc2ccc(OCCN3CCOCC3)c3ccccc23)cc1 [doramapimod]
Summary of the method: as §1

ispinesib = compound: Cc1ccc(C(=O)N(CCCN)[C@@H](c2nc3cc(Cl)ccc3c(=O)n2Cc2ccccc2)C(C)C)cc1 [ispinesib]
Summary of the method: as §1

bafetinib = compound: Cc1ccc(NC(=O)c2ccc(CN3CC[C@H](N(C)C)C3)c(C(F)(F)F)c2)cc1Nc1nccc(-c2cncnc2)n1 [bafetinib]
Summary of the method: as §1

[5] = compound: Cc1cccc(CC(=O)N2CCc3c2ccc(-c2cn(C)c4ncnc(N)c24)c3F)n1
Summary of the method: as §1

nilotinib = compound: Cc1cn(-c2cc(NC(=O)c3ccc(C)c(Nc4nccc(-c5cccnc5)n4)c3)cc(C(F)(F)F)c2)cn1 [nilotinib]
Summary of the method: as §1

[6] = compound: Cc1nc(Nc2n[nH]c3c2CN(C(=O)N[C@H](CN(C)C)c2ccccc2)C3(C)C)c2sccc2n1
Summary of the method: as §1

dasatinib = compound: Cc1nc(Nc2ncc(C(=O)Nc3c(C)cccc3Cl)s2)cc(N2CCN(CCO)CC2)n1 [dasatinib]
Summary of the method: as §1

[7] = compound: Cc1ncc(-c2ccnc(Nc3ccc(S(C)(=O)=O)cc3)n2)n1C(C)C
Summary of the method: as §1

[8] = compound: Cn1cc(-c2ccc3c(c2)CCN3C(=O)Cc2cccc(C(F)(F)F)c2)c2c(N)ncnc21
Summary of the method: as §1

[9] = compound: Cn1cc(-c2ccc3nnc(C(F)(F)c4ccc5ncccc5c4)n3n2)cn1
Summary of the method: as §1

tipifarnib = compound: Cn1cncc1[C@@](N)(c1ccc(Cl)cc1)c1ccc2c(c1)c(-c1cccc(Cl)c1)cc(=O)n2C [tipifarnib]
Summary of the method: as §1

mubritinib = compound: FC(F)(F)c1ccc(/C=C/c2nc(COc3ccc(CCCCn4ccnn4)cc3)co2)cc1 [mubritinib]
Summary of the method: as §1

duvelisib = compound: C[C@H](Nc1ncnc2nc[nH]c12)c1cc2cccc(Cl)c2c(=O)n1-c1ccccc1 [duvelisib]
Summary of the method: as §1

tozasertib = compound: Cc1cc(Nc2cc(N3CCN(C)CC3)nc(Sc3ccc(NC(=O)C4CC4)cc3)n2)n[nH]1 [tozasertib]
Summary of the method: as §1

Measured: log2 fold change

PISD (UniProt Q9UG56)
inactive: [1] 0 | crizotinib -0.023 | [2] 0.045 | [3] -0.018 | gandotinib -0.004 | [4] 0.036 | doramapimod 0.006 | ispinesib 0.02 | bafetinib -0.042 | [5] -0.007 | nilotinib -0.053 | [6] -0.003 | dasatinib -0.029 | [7] 0.105 | [8] -0.068 | [9] -0.02 | tipifarnib -0.005 | mubritinib 0.103

PGM3 isoform 4 (UniProt O95394)
active: mubritinib 0.293
inactive: [1] 0.025 | crizotinib -0.098 | [2] 0.04 | [3] -0.024 | gandotinib -0.034 | [4] 0.108 | doramapimod 0.016 | ispinesib -0.09 | bafetinib 0.056 | [5] 0.153 | nilotinib -0.022 | [6] 0.021 | dasatinib -0.145 | [7] -0.003 | [8] 0.106 | [9] 0.02 | tipifarnib -0.079

PGK2 (UniProt P07205)
inactive: [1] 0.016 | crizotinib 0.029 | [2] 0.075 | [3] -0.002 | gandotinib 0.078 | [4] -0.093 | doramapimod -0.109 | ispinesib 0.024 | bafetinib 0.009 | [5] -0.036 | nilotinib 0.066 | [6] 0.096 | dasatinib 0.11 | [7] -0.013 | [8] -0.137 | [9] -0.029 | tipifarnib -0.006 | mubritinib -0.092

PIR (UniProt O00625)
inactive: [1] 0.004 | crizotinib 0.042 | [2] 0.019 | [3] -0.085 | gandotinib 0.048 | [4] 0.057 | doramapimod 0.095 | ispinesib 0.045 | bafetinib -0.073 | [5] 0.001 | nilotinib 0.009 | [6] -0.006 | dasatinib -0.044 | [7] -0.014 | [8] -0.003 | [9] 0.028 | tipifarnib -0.069 | mubritinib 0.11

PKN1 isoform 2 (UniProt Q16512)
inactive: [1] 0.03 | crizotinib -0.233 | [2] -0.015 | [3] -0.12 | gandotinib -0.165 | [4] 0.075 | doramapimod 0.022 | ispinesib -0.065 | bafetinib -0.006 | [5] 0.038 | nilotinib -0.044 | dasatinib -0.154 | [7] -0.019 | [8] -0.02 | [9] -0.008 | tipifarnib -0.046 | mubritinib 0.098
active: [6] -0.705

PIP4K2B (UniProt P78356)
inactive: crizotinib -0.01 | [2] 0.048 | [3] -0.072 | gandotinib -0.031 | [4] -0.009 | doramapimod -0.055 | ispinesib -0.007 | bafetinib 0.258 | [5] 0.011 | nilotinib 0.085 | [6] 0.05 | dasatinib 0.139 | [8] 0.055 | [9] 0.172 | tipifarnib -0.03 | mubritinib -0.083
active: [1] 0.63 | [7] 0.538

PGGHG (UniProt Q32M88)
inactive: [1] 0.019 | crizotinib -0.01 | [2] 0.003 | [3] 0.175 | gandotinib -0.039 | [4] 0.049 | doramapimod 0.048 | ispinesib 0.05 | bafetinib -0.036 | [5] -0.001 | nilotinib 0.012 | [6] 0.023 | dasatinib 0.009 | [7] -0.078 | [8] -0.152 | [9] 0.058 | tipifarnib -0.077 | mubritinib 0.047

PHF5A (UniProt Q7RTV0)
inactive: [1] 0.013 | crizotinib 0.074 | [2] -0.061 | [3] -0.072 | gandotinib -0.009 | [4] -0.031 | doramapimod -0.093 | ispinesib 0.094 | bafetinib -0.097 | [5] -0.047 | nilotinib -0.018 | [6] 0.012 | dasatinib 0.102 | [7] 0.086 | [8] -0.031 | [9] 0.03 | tipifarnib 0.031 | mubritinib -0.025

PGS1 (UniProt Q32NB8)
inactive: [1] -0.001 | crizotinib -0.064 | [2] 0.038 | [3] 0.052 | duvelisib -0.01 | gandotinib 0.224 | tozasertib -0.042 | [4] 0.117 | doramapimod 0.025 | bafetinib 0.092 | [5] -0.036 | nilotinib 0.078 | [6] -0.095 | dasatinib -0.133 | [7] -0.07 | [8] -0.048 | tipifarnib -0.029 | mubritinib 0.065

PLBD1 (UniProt Q6P4A8)
inactive: [1] -0.01 | crizotinib -0.082 | [2] 0.009 | [3] -0.032 | gandotinib 0.011 | [4] -0.032 | doramapimod -0.007 | ispinesib 0.016 | bafetinib -0.143 | [5] 0 | nilotinib 0.021 | [6] -0.029 | dasatinib -0.063 | [7] -0.035 | [8] 0.041 | [9] 0.081 | tipifarnib 0.038 | mubritinib 0.052

PIK3CB (UniProt P42338)
inactive: [1] 0.043 | crizotinib -0.077 | [2] 0.064 | [3] 0.034 | gandotinib -0.041 | [4] 0.06 | doramapimod 0 | ispinesib -0.057 | bafetinib -0.075 | [5] 0.028 | nilotinib -0.084 | [6] -0.056 | dasatinib -0.209 | [7] 0.034 | [8] -0.002 | [9] 0.049 | tipifarnib -0.105 | mubritinib 0.037
active: duvelisib 0.318

PIP4P1 isoform 2 (UniProt Q86T03)
active: crizotinib -0.395 | ispinesib -0.353
inactive: [1] 0.021 | [2] -0.123 | [3] 0.086 | gandotinib 0.107 | [4] -0.048 | doramapimod -0.025 | bafetinib -0.044 | [5] 0.102 | nilotinib 0.031 | [6] -0.004 | dasatinib 0.051 | [7] -0.016 | [8] -0.158 | [9] 0.01 | tipifarnib 0.112 | mubritinib -0.037

PKN2 (UniProt Q16513)
inactive: [1] 0.025 | crizotinib -0.191 | [2] 0.067 | [3] -0.057 | gandotinib -0.058 | [4] 0.133 | doramapimod 0.035 | ispinesib -0.028 | bafetinib 0.068 | [5] 0.062 | nilotinib 0.125 | [6] -0.219 | dasatinib -0.138 | [7] 0.051 | [8] 0.016 | [9] 0.01 | tipifarnib -0.059 | mubritinib 0.048

PIGB (UniProt Q92521)
inactive: [1] -0.012 | crizotinib -0.079 | [2] -0.058 | [3] 0.002 | duvelisib -0.132 | gandotinib -0.149 | tozasertib -0.043 | [4] 0.098 | doramapimod 0.002 | ispinesib -0.11 | [5] 0.085 | dasatinib -0.036 | [8] -0.105 | [9] -0.048 | tipifarnib 0.006 | mubritinib 0.048

PIK3R1 (UniProt P27986)
inactive: [1] 0.033 | crizotinib -0.044 | [2] 0.002 | [3] 0.022 | gandotinib -0.038 | [4] 0.051 | doramapimod 0.056 | ispinesib -0.079 | bafetinib -0.061 | [5] 0.029 | nilotinib -0.074 | [6] 0.015 | dasatinib -0.117 | [7] 0.108 | [8] 0.009 | [9] -0.013 | tipifarnib -0.026 | mubritinib 0.017
active: duvelisib 0.232

2 records drawn at random from the list so far, as already listed:
PISD (UniProt Q9UG56)
inactive: [1] 0 | crizotinib -0.023 | [2] 0.045 | [3] -0.018 | gandotinib -0.004 | [4] 0.036 | doramapimod 0.006 | ispinesib 0.02 | bafetinib -0.042 | [5] -0.007 | nilotinib -0.053 | [6] -0.003 | dasatinib -0.029 | [7] 0.105 | [8] -0.068 | [9] -0.02 | tipifarnib -0.005 | mubritinib 0.103

PIR (UniProt O00625)
inactive: [1] 0.004 | crizotinib 0.042 | [2] 0.019 | [3] -0.085 | gandotinib 0.048 | [4] 0.057 | doramapimod 0.095 | ispinesib 0.045 | bafetinib -0.073 | [5] 0.001 | nilotinib 0.009 | [6] -0.006 | dasatinib -0.044 | [7] -0.014 | [8] -0.003 | [9] 0.028 | tipifarnib -0.069 | mubritinib 0.11

(continued)

PIP4P2 (UniProt Q8N4L2)
active: crizotinib -0.3 | ispinesib -0.569
inactive: [1] -0.057 | [2] 0.013 | [3] -0.058 | gandotinib 0.017 | [4] 0.013 | doramapimod -0.032 | bafetinib -0.083 | [5] -0.111 | nilotinib 0.013 | [6] -0.003 | dasatinib 0.055 | [7] -0.026 | [8] -0.03 | [9] 0.014 | tipifarnib 0.024 | mubritinib 0.005

PLCB3 (UniProt Q01970)
inactive: [1] 0 | crizotinib -0.07 | [2] 0.014 | [3] 0.013 | gandotinib 0.031 | [4] 0.034 | doramapimod 0.014 | ispinesib -0.078 | bafetinib -0.059 | [5] -0.084 | nilotinib -0.104 | [6] 0.033 | dasatinib -0.092 | [7] -0.006 | [8] -0.006 | [9] 0.061 | tipifarnib -0.039 | mubritinib 0.003
